Data source: PubChem BioAssay AID504744 (Drosophila RNAi Screening Center, 2011)
The screen tested about 23,000 reagents; below is an unselected part of those with a known target gene and a result. In the full data, 98 (0.43%) are marked active. 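Only hit calls are given; the phospho-dAkt signals, z-scores and hit direction were not deposited.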 Names joined by + are all predicted targets of the reagent.

- Assay: 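Uncover factors, including feedback loops, that control dAkt activation in fly cells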 (primary screen)
- System: Drosophila Kc167 cells
- Knock-down reagent: long dsRNA against Drosophila genes, 250 ng dsRNA per well of a 384-well plate
- Timing: 3 days of knock-down, then overnight serum-free starvation before stimulation
- Treatment: bovine insulin at 387 nM for 10 minutes after 12 h without serum
- Measured: 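In-cell antibody fluorescence for phospho-dAkt in each well over DNA-dye signal, with log2 residuals expressed as z-scores adjusted for cell count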
- Rule for the call: 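Hit in the insulin screen when the two-replicate mean z-score is more extreme than plus or minus 2.5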

target	dsRNA	call
Ugt303B3	DRSC14199	inactive
Kul	DRSC15404	inactive
Rnp4F	DRSC18706	inactive
aay	DRSC11320	inactive
CG8679	DRSC03109	inactive
saturn	DRSC09303	inactive
CG8778	DRSC07264	inactive
Megf8	DRSC03058	inactive
CG14419	DRSC17916	inactive
GstE9	DRSC06679	inactive
CG8301	DRSC16405	inactive
Rrp4	DRSC04434	inactive
CG15021	DRSC08475	inactive
CG7881	DRSC04898	inactive
Rgk2	DRSC06503	inactive
Rgk2	DRSC21651	inactive
Tango14	DRSC00667	inactive
CG30288	DRSC22005	inactive
CG15646	DRSC19682	inactive
Lk	DRSC10022	inactive
PsGEF (retired record)	DRSC18600	inactive
PsGEF (retired record)	DRSC18601	inactive
aru	DRSC00802	inactive
aru	DRSC22019	inactive
Grip163	DRSC10538	inactive
CG8006	DRSC10949	inactive
Tsp42Eq	DRSC06180	inactive
rtet	DRSC14160	inactive
ttk	DRSC14078	inactive
ttk	DRSC17091	inactive
LManV	DRSC03223	inactive
Rheb	DRSC12148	active
CG30049	DRSC21345	inactive
babo	DRSC07581	inactive
CG7025	DRSC03002	inactive
CG15764	DRSC18070	inactive
CG1571	DRSC18068	inactive
MTF-1	DRSC08983	inactive
MTF-1	DRSC11217	inactive
MTF-1	DRSC21341	inactive
Naa20A	DRSC19579	inactive
CAH5	DRSC15372	inactive
CG16775	DRSC10225	inactive
CG13625	DRSC14627	inactive
twf	DRSC15466	inactive
Cbl	DRSC10764	inactive
Cbl	DRSC11111	inactive
ref(2)P	DRSC03601	inactive
CG32191	DRSC10522	inactive
CG2278	DRSC18226	inactive
CG8939	DRSC20127	inactive
CG15743	DRSC19709	inactive
ppk20	DRSC16260	inactive
ms(2)34Fe	DRSC01905	inactive
Pabp2	DRSC07501	inactive

Look-ups from above.
CG1571 [DRSC18068], call → inactive
Lk [DRSC10022], call = inactive
For “call”, MTF-1 [DRSC21341] has inactive
CG7025 [DRSC03002], call = inactive
CG15646 [DRSC19682], call: inactive
Under “call”, CG15021 [DRSC08475] is entered as inactive

The list goes on:
target	dsRNA	call
Su(P)	DRSC11291	inactive
Jarid2	DRSC10372	inactive
Ctl2	DRSC14423	inactive
Gprk1	DRSC20732	inactive
Gprk1	DRSC20916	inactive
MICAL-like	DRSC09829	inactive
s-cup	DRSC06277	inactive
s-cup	DRSC06278	inactive
CG13385	DRSC02259	inactive
dmrt99B	DRSC15045	inactive
CG31342	DRSC15349	inactive
CG31342	DRSC16246	inactive
Ir85a	DRSC14382	inactive
Ssadh	DRSC15621	inactive
sano	DRSC06165	inactive
ksr	DRSC12379	inactive
CG32533	DRSC19443	inactive
CG32533	DRSC19553	inactive
hoip	DRSC03546	inactive
Jhbp14	DRSC01988	inactive
CG14205	DRSC19560	inactive
CG3288	DRSC11745	inactive
Hn	DRSC11184	inactive
dpr17	DRSC12885	inactive
dpr17	DRSC14957	inactive
dpr17	DRSC14958	inactive
side-III	DRSC12155	inactive
side-III	DRSC12263	inactive
side-III	DRSC12264	inactive
CG4789	DRSC19918	inactive
CG8320 + ATPCL	DRSC07147	inactive
Serinc	DRSC11296	inactive
pths	DRSC03171	inactive
Jabba	DRSC06521	inactive
nopo	DRSC06918	inactive
CG32773 (retired record)	DRSC17330	inactive
Uros2	DRSC16505	inactive
chico	DRSC03531	inactive
Traf-like	DRSC19894	inactive
Cyp301a1	DRSC07365	inactive
sit	DRSC15760	inactive
CG14300	DRSC14779	inactive
nmdyn-D7	DRSC17016	inactive
MstProx + Mst84Da	DRSC12597	inactive
Trxr1	DRSC18668	inactive
Trxr1	DRSC22293	inactive
Mst98Cb	DRSC16750	inactive
Mst98Cb	DRSC22495	inactive
mfas	DRSC16997	inactive
MED31	DRSC12142	inactive
Coprox	DRSC01996	inactive
Six4	DRSC11881	inactive
